The assay addresses T1, FliC (type B flagellin) of Pseudomonas aeruginosa PAO1, subunit of the native flagellar filament (Pseudomonas aeruginosa PAO1), P72151.
T1 chain: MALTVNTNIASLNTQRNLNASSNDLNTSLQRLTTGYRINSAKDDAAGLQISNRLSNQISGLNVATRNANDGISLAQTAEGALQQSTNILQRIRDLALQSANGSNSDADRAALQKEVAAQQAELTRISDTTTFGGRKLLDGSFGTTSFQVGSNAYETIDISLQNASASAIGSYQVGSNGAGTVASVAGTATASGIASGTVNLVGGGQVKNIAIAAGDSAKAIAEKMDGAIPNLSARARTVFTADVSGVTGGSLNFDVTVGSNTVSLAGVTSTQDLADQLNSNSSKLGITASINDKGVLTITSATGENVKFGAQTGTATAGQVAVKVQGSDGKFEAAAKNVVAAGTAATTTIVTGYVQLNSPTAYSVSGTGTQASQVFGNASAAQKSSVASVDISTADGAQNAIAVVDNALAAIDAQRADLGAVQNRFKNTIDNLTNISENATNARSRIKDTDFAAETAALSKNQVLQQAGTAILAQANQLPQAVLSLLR
The assay is described as follows: cryo-EM structure; native PAO1 flagellar filaments sheared off cells, in PBS; reconstructed without imposing helical symmetry; both purified. The conditions noted are these: remark: other sources report otherwise.

Experimental findings from article PMC10256154, “An unbroken network of interactions connecting flagellin domains is required for motility in viscous environments” (PLOS Pathogens, 2023) are described below.

These are yes or no findings as the source states them, for the method shown. Some results given as binding are weak or reduced against the parent protein; the word gives no strength. Where a sequence is shown, tags or fusion partners need not be part of it.

B1: FliC (type B flagellin) of Pseudomonas aeruginosa PAO1, subunit of the native flagellar filament, P72151 1-488 (protein)
chain: MALTVNTNIASLNTQRNLNASSNDLNTSLQRLTTGYRINSAKDDAAGLQISNRLSNQISGLNVATRNANDGISLAQTAEGALQQSTNILQRIRDLALQSANGSNSDADRAALQKEVAAQQAELTRISDTTTFGGRKLLDGSFGTTSFQVGSNAYETIDISLQNASASAIGSYQVGSNGAGTVASVAGTATASGIASGTVNLVGGGQVKNIAIAAGDSAKAIAEKMDGAIPNLSARARTVFTADVSGVTGGSLNFDVTVGSNTVSLAGVTSTQDLADQLNSNSSKLGITASINDKGVLTITSATGENVKFGAQTGTATAGQVAVKVQGSDGKFEAAAKNVVAAGTAATTTIVTGYVQLNSPTAYSVSGTGTQASQVFGNASAAQKSSVASVDISTADGAQNAIAVVDNALAAIDAQRADLGAVQNRFKNTIDNLTNISENATNARSRIKDTDFAAETAALSKNQVLQQAGTAILAQANQLPQAVLSLLR
On to B1, for which the binding result is “binds”.
